Test results as given in patent publication US8278289B2, “Boroxine composition for removal of skin changes” (priority 2006, dated 2012).
For at least one compound, name, drawing or mass did not settle the structure.

How the values were obtained:
mouse fibro-sarcoma FsaR = experiment: Cytotoxic effect on mouse fibro-sarcoma FsaR (crystal violet viability); format: cell-based; conditions: viable cells by absorbance at 590 nm after 24 hours with substance; XS100 = dosage 0.5 μg; variation max 10%
Method: (§1) An investigation of anti-tumor activity of the boroxine compound (XS) was conducted on cell lines of mouse fibro-sarcoma FsaR and mouse carcinoma SCC VII.
(§2) Cell lines (mouse fibro-sarcoma FsaR and mouse carcinoma SCC VII) were incubated at optimal conditions for 24 hours, followed by addition of tested substances in a dosage of 0.5 μg (XS100) and combinations with Li (lithium) and SNP (sodium-nitroprusside) Li (lithium) is blocker of GSK-3 (glycogen-synthetase-kinase), an enzyme involved in pathways that modulate cell's death. SNP (sodium-nitroprusside) is modulator of pro-apoptotic protein p53 (tumor suppressor protein).
(§3) Cells were additionally incubated for 24 hours in the presence of the substances. Later, cells were fixed by glutaraldehyde and stained in 0.1% crystal violet. Stain attached to the viable cells was extracted by 0.2% Triton-X 100 and extract absorbance was determined at 590 nm. Value of absorbance is proportional with viable cells number.
(§4) The following results have been obtained (the observed variation of the observed values are a maximum of 10%).

[1] = system: mouse carcinoma cells SCC VII; experiment: Cytotoxic effect on mouse carcinoma cells SCC VII (crystal violet viability); format: cell-based; conditions: viable cells by absorbance at 590 nm after 24 hours with substance; XS100 = dosage 0.5 μg; variation max 10%
Method: as §1, §2, §3, §4

[Li] [Li, lithium]
% of control (mouse fibro-sarcoma FsaR): 100 % of control | % of control [1]: 97 % of control
